In assay [1] the test system is ReNCell VM. Description: neuronal differentiation score (DCX+ cell fraction vs untreated, manual image score) (score (-3 to 3)); higher = more neuronal differentiation. The following applies: 2 uM, 2 weeks.
Assay [2] concerns ReNCell VM. Description: dopaminergic neuron differentiation score (TH+ cell fraction vs untreated, manual image score) (score (0 to 3)); higher = more TH+ dopaminergic neuron differentiation. To be noted: 2 uM, 4 weeks, BDNF 10 ng/ml + GDNF 10 ng/ml.

Where a name gives a salt, the structure may show the parent alone. The list shows a part of the results. Single values are uncertain here, since repeats match poorly.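 ReNCell VM, a human fetal ventral-midbrain neural progenitor line, was differentiated without mitogens. Blinded raters scored images stained for doublecortin (early neurons) or tyrosine hydroxylase (dopaminergic neurons) against untreated wells (0 = no change). Scores were averaged across repeats and both raters, and compounds averaging 2 or more were selected as hits for retesting.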

Turning to `c1ccc(N2CCN(CCCOc3ccc4c(c3)OCO4)CC2)cc1` [BP 554 maleate], the neuronal differentiation score in assay [1] (library: Tocriscreen) is inactive: 0. For the same compound, the “dopaminergic neuron differentiation score” value in assay [2] (library: Tocriscreen) was inactive: 0.

Turning to `CCCn1cnc2c1c(=O)n(CCCCC(C)=O)c(=O)n2C` [Propentofylline], in assay [1] (library: LOPAC), the neuronal differentiation score was inactive: 0. Further, in assay [2] (library: LOPAC), the “dopaminergic neuron differentiation score” value was inactive: 0.

As to `Cc1ccc(S(=O)(=O)NCl)cc1`, in assay [1] (library: Spectrum), the neuronal differentiation score was inactive: 0. In assay [2] (library: Spectrum), the “dopaminergic neuron differentiation score” value is inactive: 0.

On to `N=C(N)NS(=O)(=O)c1ccc(N)cc1`, for which the neuronal differentiation score in assay [1] (library: Spectrum) was inactive: 0. In addition, the “dopaminergic neuron differentiation score” value in assay [2] (library: Spectrum) was inactive: 0.

As for `CS(=O)(=O)OCCCCOS(C)(=O)=O` [Busulfan], in assay [1] (library: Prestwick), the neuronal differentiation score is inactive: 0. Besides, the “dopaminergic neuron differentiation score” value in assay [2] (library: Prestwick) is inactive: 0.

`CC(C)(Sc1cc(C(C)(C)C)c(O)c(C(C)(C)C)c1)Sc1cc(C(C)(C)C)c(O)c(C(C)(C)C)c1` [Probucol]: in assay [1] (library: Prestwick), the neuronal differentiation score was inactive: 0. For the same compound, the “dopaminergic neuron differentiation score” value in assay [2] (library: Prestwick) is inactive: 0.

`NCCS`: the neuronal differentiation score in assay [1] (library: Spectrum) is inactive: 0. For the same compound, the “dopaminergic neuron differentiation score” value in assay [2] (library: Spectrum) was inactive: 0.

Consider `CC[C@@]1(O)C(=O)OCc2c1cc1n(c2=O)Cc2cc3c(CN(C)C)c(O)ccc3nc2-1` [Topotecan], for which the neuronal differentiation score in assay [1] (library: Prestwick) is inactive: 0. Also, in assay [2] (library: Prestwick), the “dopaminergic neuron differentiation score” value was inactive: 0.

As for `CC(=O)N1CCN(c2ccc(OCC3COC(Cn4ccnc4)(c4ccc(Cl)cc4Cl)O3)cc2)CC1` (configuration not stated), in assay [1] (library: Spectrum), the neuronal differentiation score is inactive: 0. In assay [2] (library: Spectrum), the “dopaminergic neuron differentiation score” value was inactive: 0.

With `CC(NC(=O)c1ccccc1/N=C/c1c(O)ccc2ccccc12)c1ccccc1` (configuration not stated) [Sirtinol], the neuronal differentiation score in assay [1] (library: Tocriscreen) was inactive: 0. Further, the “dopaminergic neuron differentiation score” value in assay [2] (library: Tocriscreen) is inactive: 0.

On to `C[C@]12C(=O)C=C(O)C=C1CC[C@H]1[C@@H]3C[C@@H](O)C(O)(C(=O)CO)[C@@]3(C)C[C@H](O)[C@@]12F` (some centres not stated) [Triamcinolone alcohol], for which the neuronal differentiation score in assay [1] (library: Phytochemical) was inactive: 0. Further, the “dopaminergic neuron differentiation score” value in assay [2] (library: Phytochemical) is inactive: 0.

Regarding `N#C/C(=C\c1ccc(O)c(O)c1)C(=O)c1ccc(O)c(O)c1` [Tyrphostin AG 538], the neuronal differentiation score in assay [1] (library: LOPAC) was inactive: 0. The “dopaminergic neuron differentiation score” value in assay [2] (library: LOPAC) is inactive: 0.

As to `NS(=O)(=O)c1cccc2c1c([N+](=O)[O-])cc1nc(O)c(O)nc12` [NBQX disodium], in assay [1] (library: LOPAC), the neuronal differentiation score was inactive: 0. Besides, the “dopaminergic neuron differentiation score” value in assay [2] (library: LOPAC) was inactive: 0.

Take `CC(C)(C)NCC(O)COc1cccc2c1CC(O)C(O)C2` (configuration not stated) [Nadolol]: the neuronal differentiation score in assay [1] (library: Prestwick) is inactive: 0. For the same compound, in assay [2] (library: Prestwick), the “dopaminergic neuron differentiation score” value is inactive: 0.

For `CC(C)=CC1C(C(=O)O)C1(C)C` (configuration not stated), in assay [1] (library: Spectrum), the neuronal differentiation score was inactive: 0. Also, in assay [2] (library: Spectrum), the “dopaminergic neuron differentiation score” value was inactive: 0.

On to `CC1(C)CCC=[N+]1[O-]` [5,5-Dimethyl-1-pyrroline-N-oxide], for which, in assay [1] (library: LOPAC), the neuronal differentiation score was active: 3. Further, in assay [2] (library: LOPAC), the “dopaminergic neuron differentiation score” value is inactive: 0.

Regarding `CC(=O)Nc1c(I)cc(I)c(C(=O)O)c1I`, in assay [1] (library: Spectrum), the neuronal differentiation score was inactive: 0. For the same compound, the “dopaminergic neuron differentiation score” value in assay [2] (library: Spectrum) was inactive: 0.

For the compound `NC(=O)[C@@H]1CCCN1C(=O)[C@H](Cc1c[nH]cn1)NC(=O)[C@@H]1CCC(=O)N1`, the neuronal differentiation score in assay [1] (library: Spectrum) was inactive: 0. Further, in assay [2] (library: Spectrum), the “dopaminergic neuron differentiation score” value is inactive: 0.

Regarding `CNCCCC1c2ccccc2C=Cc2ccccc21`, the neuronal differentiation score in assay [1] (library: Spectrum) was inactive: 0. Also, the “dopaminergic neuron differentiation score” value in assay [2] (library: Spectrum) is inactive: 0.

Regarding `O=C(O)/C=C/c1ccc(O)c(O)c1`, the neuronal differentiation score in assay [1] (library: Spectrum) was inactive: 0. In addition, the “dopaminergic neuron differentiation score” value in assay [2] (library: Spectrum) was inactive: 0.

For the compound `O=C(O)/C=C/C=C/c1ccc2c(c1)OCO2`, in assay [1] (library: Spectrum), the neuronal differentiation score is inactive: 0. Also, the “dopaminergic neuron differentiation score” value in assay [2] (library: Spectrum) was inactive: 0.

Turning to `CC1=C(C(=O)O)N2C(=O)[C@@H](NC(=O)[C@H](N)C3=CCC=CC3)[C@H]2SC1` [Cephradine], in assay [1] (library: LOPAC), the neuronal differentiation score is inactive: 0. Besides, the “dopaminergic neuron differentiation score” value in assay [2] (library: LOPAC) is inactive: 1.

Turning to `COc1cc2c(cc1OC)-c1cc3nc4ccccc4nc3n1C(C)(C)C2`, the neuronal differentiation score in assay [1] (library: Tocriscreen) was inactive: 0. Further, the “dopaminergic neuron differentiation score” value in assay [2] (library: Tocriscreen) is inactive: 0.

Take `COC(=O)/C(=C1/OC(=O)C(c2ccccc2)=C1O)c1ccccc1`: the neuronal differentiation score in assay [1] (library: Spectrum) is inactive: 0. In assay [2] (library: Spectrum), the “dopaminergic neuron differentiation score” value was inactive: 0.

As to `CC(COc1ccccc1)N(CCCl)Cc1ccccc1` (configuration not stated), in assay [1] (library: Spectrum), the neuronal differentiation score was inactive: 1. In assay [2] (library: Spectrum), the “dopaminergic neuron differentiation score” value was inactive: 0.

Consider `CC[C@H](CO)Nc1nc(Nc2cccc(-c3ccccn3)c2)c2ncn(C(C)C)c2n1` [(R)-DRF053 dihydrochloride], for which the neuronal differentiation score in assay [1] (library: Tocriscreen) is inactive: 1. Further, the “dopaminergic neuron differentiation score” value in assay [2] (library: Tocriscreen) was inactive: 0.
